# Assay results from PubChem BioAssay AID485349 (National Center for Advancing Translational Sciences (NCATS), 2010).
# In all, about 320,000 compounds went through this assay and about 620 (0.19%) were called active. The shares of active, inactive and inconclusive entries below differ from those in the screen. Calls follow the shape of the dose curve; as a rule, active = well fitted activation curve with a large enough effect; inconclusive = small, poorly fitted or top-dose-only effect; inactive = no such curve, though single readings can be large or run the other way. Where the call is inconclusive, the potency comes from a doubtful curve fit.
# Test: qHTS Assay for Identifying a Potential Treatment of Ataxia-Telangiectasia; also: nearly all actives have a fitted effect of over 45% in size; as to activation: % of control where 0% means no effect
# Details: […] A-T fibroblasts, KAP-1 phosphorylation AlphaLISA, neocarzinostatin DNA damage 30 min before lysis; series mostly up to 57.5 µM; activation: at the top concentration
# Outline: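 hTERT-immortalized A-T patient fibroblasts ([…]), 500 cells/well in OPTI-MEM, 1% FBS, got compounds for 60 min, then NCS for 30 min at 37C. Lysates were then assayed for phospho-KAP-1 by AlphaLISA (anti-pKAP1 donor, anti-KAP1 acceptor beads), 6 hr at 25C.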
# Potency is read from the fitted curve at half-maximal effect.
Compound,Potency,activation
COc1ccc(CNCC(=O)Nc2cc(C)nn2-c2nc(C)cc(C)n2)cc1OC,"inconclusive: 3.98 µM [activator, partial curve, poor fit]",
c1ccc(OCc2nnc3sc(C4COc5ccccc5O4)nn23)cc1 (centres undefined),"inconclusive: 0.708 µM [activator, full curve, poor fit]",
COc1ccc(C(CC(=O)O)N2C(=O)CCC2=O)cc1 (centres undefined),"inconclusive: 7.08 µM [activator, single point]",
O=C(CSc1nnnn1C1CCCC1)Nc1cccc(NC(=O)c2ccco2)c1,"inconclusive: 3.98 µM [activator, single point]",
COc1ccc(-n2c(SCC#N)nc3c(sc(=S)n3-c3ccccc3)c2=O)c(OC)c1,,inactive: 3.1%
CCCCn1c2c(c(=N)c3ccccc31)CCC2,"inconclusive: 8.91 µM [activator, partial curve, poor fit]",
Cc1ccc(C)c(NC(=S)NC(C)C(c2cccs2)N2CCOCC2)c1 (centres undefined),"inconclusive: 10 µM [activator, full curve]",
O=C(c1ncn[nH]1)N1CCN(c2nc(-c3ccccc3)cs2)CC1,"inconclusive: 0.631 µM [activator, partial curve, poor fit]",
CCOc1ccc(N/C(N)=N/c2nc(CSc3nnnn3-c3ccccc3)cc(=O)[nH]2)cc1,"inconclusive: 0.631 µM [activator, full curve, poor fit]",
Nc1c(S(=O)(=O)c2ccccc2)c2nc3ccccc3nc2n1Cc1ccco1,active: 22.4 µM,
COCCCN1CC(=O)N2C(c3cccc(OC)c3)c3[nH]c4ccccc4c3C[C@H]2C1=O (some centres undefined),"inconclusive: 2.82 µM [activator, partial curve]",
CC1CC(=O)c2c(cc3c(-c4c(O)cc(O)c5c(O)c6c(cc45)OC(C)CC6=O)c(O)cc(O)c3c2O)O1 (centres undefined),,inactive: -31.3%
C=CCNC(=O)c1c(N)n(-c2ccc3c(c2)OCO3)c2nc3ccccc3nc12,,inactive: 1.64%
CCOC(=O)c1c(C)[nH]c(N=Nc2ccc(OC)cc2)c1C,,inactive: 3.37%
Cc1ccc(OC(F)F)c(NC(=O)Nc2cccc(C(F)(F)F)c2)c1,active: 28.2 µM,
Oc1ccccc1N=Cc1c(O)ccc2ccccc12,"inconclusive: 28.2 µM [activator, single point]",
CC(C)C1CC(CCN)(c2ccccc2)CCO1 (centres undefined),active: 2.82 µM,
COc1ccc(-n2c(C)cc(/C=C3\SC(=O)NC3=O)c2C)cc1,"inconclusive: 10 µM [activator, full curve, poor fit]",
CC1(C)CC(=O)C(N=Nc2cccc(S(=O)(=O)N3CCOCC3)c2)=C(O)C1,active: 17.8 µM,
CC1(OC(=O)C2CCCC2)C(=O)C=C2C=C(c3ccsc3)N(C(CO)CO)C=C2C1=O (centres undefined),,inactive: 3.23%
COC(=O)c1sc(-c2ccccc2)cc1NC(=O)C1CC1,"inconclusive: 35.5 µM [activator, single point]",
CN(C)CCn1nnnc1SCC1=C(C(=O)O)N2C(=O)[C@@H](NC(=O)Cc3csc(N)n3)[C@H]2SC1,,inactive: -2.2%
CCC(=O)NC(c1ccc(Cl)cc1Cl)c1ccc2cccnc2c1O (centres undefined),,inactive: 0.235%

Compound,Potency,activation
Cc1ccc(/C=C/C(=O)c2ccc([N+](=O)[O-])o2)cc1,"inconclusive: 10 µM [activator, partial curve]",
CCCCn1c(N)c(N(CC(C)C)C(=O)c2cc(-c3ccc(OC)c(OC)c3)nc3ccccc23)c(=O)[nH]c1=O,"inconclusive: 3.98 µM [activator, partial curve]",
CCOc1ccc(C(=O)C(CCC(CN(C)C)C(=O)c2ccc(OCC)cc2)CN(C)C)cc1 (centres undefined),"inconclusive: 35.5 µM [activator, single point]",
O=C1CN(C(=O)NCC(=O)N[C@H](C(=O)O)c2ccccc2)c2ccccc2N1,"inconclusive: 2.82 µM [activator, full curve, poor fit]",
Cc1ccc(-c2ncccc2OC(=O)C23CC4CC(CC(C4)C2)C3)cc1,"inconclusive: 39.8 µM [activator, single point]",
Fc1ccc(N2N=C(c3cccs3)CC2c2ccccc2)cc1 (centres undefined),active: 22.4 µM,
Cc1cc(-c2cc(-c3ccc(Cl)cc3)on2)nc(NC2CCCC2)n1,"inconclusive: 20 µM [activator, partial curve, poor fit]",
COc1ccccc1Cc1nnc(NC(=O)C2CCN(C(=O)c3ccco3)CC2)s1,,inactive: -5.83%
CCc1noc(C)c1C(=O)N(C)CC(=O)Nc1cccc(OC)c1,,inactive: -1.18%
CCN(CC)CCNc1nc(-n2nc(C)cc2C)nc2sc3c(c12)CC(C)(C)OC3,active: 35.5 µM,
CC1CN=C(c2cccn2Cc2ccc(F)cc2Cl)O1 (centres undefined),"inconclusive: 22.4 µM [activator, single point]",
COc1ccc(NC(=O)c2ccc(CN3CCc4ccccc4C3)cc2)cc1OC,,inactive: 8.37%
COc1ccc(N(CC(=O)NCc2ccccc2)C(=O)CCC(=O)Nc2cc(C)ccn2)c(OC)c1,"inconclusive: 2.82 µM [activator, partial curve]",
Cn1c(-c2ccccc2)c(C(=O)CCl)c2ccccc21,"inconclusive: 17.8 µM [activator, single point]",
CC1CCCCN1C(=O)CN1C(=O)CN(C)C(=O)c2ccccc21 (centres undefined),"inconclusive: 8.91 µM [activator, single point]",
FC(F)(F)c1cc(-c2ccco2)nc(NCc2ccccc2)n1,"inconclusive: 39.8 µM [activator, single point]",
CCN1C/C(=C/c2cccc([N+](=O)[O-])c2)C(=O)/C(=C/c2cccc([N+](=O)[O-])c2)C1,,inactive: 22.3%
OC(c1cc(-c2ccc(C(F)(F)F)cc2)nc(C(F)(F)F)c1)C1CCCCN1 (centres undefined),active: 39.8 µM,
Clc1ccc(-c2nnc(-c3cccc4ccccc34)o2)cc1Cl,active: 15.8 µM,
O=C(Nc1ccccc1)C(Cl)C(=O)c1ccccc1 (centres undefined),"inconclusive: 39.8 µM [activator, single point]",
Cc1ccc(C(=O)N2CCC3(CC2)Oc2ccc(F)cc2C(=O)C32CC(c3cccnc3)=NO2)s1 (centres undefined),active: 39.8 µM,
O=C(COc1coc(CN2CCN(c3ccc(F)cc3)CC2)cc1=O)NCC1CCCO1 (centres undefined),"inconclusive: 39.8 µM [activator, single point]",
CCOC(=O)N1CCc2[nH]c3ccc(C)cc3c2C1,"inconclusive: 39.8 µM [activator, partial curve]",

Compound,Potency,activation
CCOC(=O)/C(C#N)=C\c1cn(C)c2ccccc12,"inconclusive: 0.891 µM [activator, full curve]",
Nc1c(Cl)ncnc1N1CCN(c2ncnc(Cl)c2N)CC1,,inactive: -6.25%
CN(CC1CCCO1)S(=O)(=O)c1ccc(C(=O)Nc2ccc(S(N)(=O)=O)cc2)cc1 (centres undefined),"inconclusive: 22.4 µM [activator, partial curve, poor fit]",
O=C(Nc1cccc(S(=O)(=O)NC2=NCCCCC2)c1)C1COc2ccccc2O1 (centres undefined),"inconclusive: 3.55 µM [activator, partial curve]",
Cc1nc2cc(NC(=O)Nc3cccc(F)c3)ccc2n1C,"inconclusive: 3.55 µM [activator, partial curve]",
CC(C)(C)NC(=O)CSc1nnc(C2CC2)n1Cc1ccccc1,"inconclusive: 31.6 µM [activator, partial curve]",
CCOC(=O)C(=NC(C)C)NNc1cc(Cl)ccc1Cl,"inconclusive: 28.2 µM [activator, single point]",
O=C1/C(=C\c2cccnc2)SC(=S)N1C1CCS(=O)(=O)C1 (centres undefined),"inconclusive: 39.8 µM [activator, single point]",
COc1ccc(/C=C(/C(=O)c2cccs2)N2C=CC=CC2=C(C#N)C#N)cc1,,inactive: 1.59%
COC(=O)c1ccccc1NC(=O)CNc1cc(Cl)ccc1N1CCOCC1,"inconclusive: 39.8 µM [activator, partial curve, poor fit]",
Cn1cc(/C=N/NC(N)=S)c2ccccc21,"inconclusive: 0.708 µM [activator, full curve, poor fit]",
Cc1occc(=O)c1OC(=O)Nc1ccc(Cl)c(Cl)c1,"inconclusive: 20 µM [activator, partial curve]",
Cc1ccc(NC(=O)c2cc(C)nn2-c2ccccc2)cc1,,inactive: 9.57%
CC(=O)Nc1ccc(NC(=O)CSc2nnnn2-c2ccc(F)cc2)cc1,active: 3.16 µM,
CCN(C(=O)COC(=O)c1c(C)noc1C)C1CCS(=O)(=O)C1 (centres undefined),"inconclusive: 8.91 µM [activator, single point]",
CCOC(CCNC(=O)c1cn(C)c(=O)c2c1c1ccccc1n2C)OCC,"inconclusive: 22.4 µM [activator, single point]",
CC(OC(=O)c1ccc(-c2ccc([N+](=O)[O-])cc2)o1)C(=O)NC(N)=O (centres undefined),"inconclusive: 2.82 µM [activator, full curve, poor fit]",
CC(=O)c1cccc(NC(=S)N2CCCC2)c1,"inconclusive: 0.631 µM [activator, full curve, poor fit]",
CCOC(=O)C1=C(O)c2ccccc2C(=O)/C1=C\c1ccc(C)cc1,"inconclusive: 31.6 µM [activator, partial curve]",
Cc1ccc(Sc2c([N+](=O)[O-])c(=O)n(C)c3ccccc23)cc1,"inconclusive: 10 µM [activator, partial curve]",
Cn1c(O)c(N=NC(=O)c2ccccc2O)c2ccccc21,,inactive: 5.59%
CCCCCCSc1ccc(-c2nc3ccc(C)cn3c2NCc2ccccc2)cc1OC,"inconclusive: 17.8 µM [activator, partial curve]",
Cc1cccc(-n2nnnc2SCn2nnc3ccccc3c2=O)c1,,inactive: -0.94%

# Molecules from the list above containing a CF3 group (3):
Compound,Potency,activation
Cc1ccc(OC(F)F)c(NC(=O)Nc2cccc(C(F)(F)F)c2)c1,active: 28.2 µM,
FC(F)(F)c1cc(-c2ccco2)nc(NCc2ccccc2)n1,"inconclusive: 39.8 µM [activator, single point]",
OC(c1cc(-c2ccc(C(F)(F)F)cc2)nc(C(F)(F)F)c1)C1CCCCN1 (centres undefined),active: 39.8 µM,
